The supplement of paper PMC12823440, “Inhibitors supercharge kinase turnover through native proteolytic circuits” (Nature, 2025)
Some of the results follow. Hit calls seldom repeat between salt and free forms of one compound.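 Kinases, fused to nanoluciferase, were expressed in K562 cells; luminescence was measured every 4 h from 2 to 18 h as percent of control (DMSO = 100%, positive control = 0%). A time point is decreased if signal falls significantly (2 sigma). Hits were called by the authors by a rule that is not shown; the count of time points alone does not decide it.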

Sequences of proteins named here, by UniProt entry; tags and fusion partners are left off. A change or cut given only in a name is not applied to a line headed by its entry.
UniProt Q05397, whole entry, looked up: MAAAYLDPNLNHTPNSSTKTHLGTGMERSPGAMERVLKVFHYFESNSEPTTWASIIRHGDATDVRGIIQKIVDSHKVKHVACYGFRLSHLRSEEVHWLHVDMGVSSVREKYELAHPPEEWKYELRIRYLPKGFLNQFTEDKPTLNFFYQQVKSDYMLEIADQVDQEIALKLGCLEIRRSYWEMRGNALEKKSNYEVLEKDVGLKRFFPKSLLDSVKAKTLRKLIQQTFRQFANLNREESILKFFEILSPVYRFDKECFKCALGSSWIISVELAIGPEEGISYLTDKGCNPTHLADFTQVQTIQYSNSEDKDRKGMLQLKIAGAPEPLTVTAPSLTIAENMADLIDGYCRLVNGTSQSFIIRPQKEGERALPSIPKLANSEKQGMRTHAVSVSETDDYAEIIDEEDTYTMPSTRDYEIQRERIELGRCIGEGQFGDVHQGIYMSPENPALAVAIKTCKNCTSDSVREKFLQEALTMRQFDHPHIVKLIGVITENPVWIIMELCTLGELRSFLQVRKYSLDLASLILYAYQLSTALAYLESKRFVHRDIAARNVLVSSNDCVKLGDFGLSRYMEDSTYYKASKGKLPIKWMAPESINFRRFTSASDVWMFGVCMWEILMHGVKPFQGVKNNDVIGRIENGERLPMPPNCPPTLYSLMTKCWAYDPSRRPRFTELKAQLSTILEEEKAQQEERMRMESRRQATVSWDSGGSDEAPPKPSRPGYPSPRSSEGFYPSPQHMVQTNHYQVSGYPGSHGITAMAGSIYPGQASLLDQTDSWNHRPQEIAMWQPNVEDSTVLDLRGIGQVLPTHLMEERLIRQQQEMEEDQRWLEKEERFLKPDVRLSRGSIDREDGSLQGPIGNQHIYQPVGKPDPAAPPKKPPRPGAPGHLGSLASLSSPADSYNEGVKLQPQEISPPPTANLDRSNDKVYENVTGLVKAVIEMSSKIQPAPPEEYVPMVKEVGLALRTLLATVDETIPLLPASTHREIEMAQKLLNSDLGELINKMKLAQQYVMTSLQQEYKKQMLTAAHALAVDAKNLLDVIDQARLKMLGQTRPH
UniProt P06239: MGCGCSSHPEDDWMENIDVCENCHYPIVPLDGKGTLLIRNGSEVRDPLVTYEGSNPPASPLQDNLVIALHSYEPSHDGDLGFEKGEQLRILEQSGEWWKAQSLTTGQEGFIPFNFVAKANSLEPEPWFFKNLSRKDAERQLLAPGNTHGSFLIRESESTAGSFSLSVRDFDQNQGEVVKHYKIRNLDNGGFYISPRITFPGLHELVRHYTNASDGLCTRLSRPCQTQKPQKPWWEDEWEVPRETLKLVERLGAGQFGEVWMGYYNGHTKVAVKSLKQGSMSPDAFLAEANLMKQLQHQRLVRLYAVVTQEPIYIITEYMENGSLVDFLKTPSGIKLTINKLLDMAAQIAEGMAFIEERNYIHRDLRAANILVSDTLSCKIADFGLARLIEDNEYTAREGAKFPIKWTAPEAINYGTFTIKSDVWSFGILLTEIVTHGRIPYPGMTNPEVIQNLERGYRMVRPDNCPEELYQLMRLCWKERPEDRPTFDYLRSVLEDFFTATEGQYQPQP
UniProt Q14289, whole entry, looked up: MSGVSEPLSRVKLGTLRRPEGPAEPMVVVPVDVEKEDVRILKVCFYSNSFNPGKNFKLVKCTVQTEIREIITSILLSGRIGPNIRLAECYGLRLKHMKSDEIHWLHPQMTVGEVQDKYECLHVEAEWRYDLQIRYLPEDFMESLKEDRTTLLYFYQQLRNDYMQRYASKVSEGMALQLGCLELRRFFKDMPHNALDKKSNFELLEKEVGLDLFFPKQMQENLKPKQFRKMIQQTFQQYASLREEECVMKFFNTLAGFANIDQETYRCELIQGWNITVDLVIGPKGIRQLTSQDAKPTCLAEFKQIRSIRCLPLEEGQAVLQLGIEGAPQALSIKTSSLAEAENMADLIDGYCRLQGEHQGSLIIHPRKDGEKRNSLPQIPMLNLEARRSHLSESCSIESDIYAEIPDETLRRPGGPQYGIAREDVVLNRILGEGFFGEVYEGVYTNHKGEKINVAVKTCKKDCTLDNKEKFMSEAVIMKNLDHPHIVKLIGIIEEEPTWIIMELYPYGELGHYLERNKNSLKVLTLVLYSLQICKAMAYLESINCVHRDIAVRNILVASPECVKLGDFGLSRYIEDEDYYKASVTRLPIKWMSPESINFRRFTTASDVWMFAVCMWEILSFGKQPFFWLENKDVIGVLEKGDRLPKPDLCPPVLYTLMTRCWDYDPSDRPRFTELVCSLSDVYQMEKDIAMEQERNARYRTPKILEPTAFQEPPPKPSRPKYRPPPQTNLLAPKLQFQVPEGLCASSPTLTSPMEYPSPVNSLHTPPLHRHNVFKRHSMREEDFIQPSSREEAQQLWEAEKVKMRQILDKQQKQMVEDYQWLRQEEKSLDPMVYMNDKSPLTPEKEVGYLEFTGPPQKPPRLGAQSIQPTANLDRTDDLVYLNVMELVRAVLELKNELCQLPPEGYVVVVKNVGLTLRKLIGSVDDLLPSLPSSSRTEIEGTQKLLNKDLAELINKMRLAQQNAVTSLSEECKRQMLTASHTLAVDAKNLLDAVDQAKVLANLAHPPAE
UniProt Q15208: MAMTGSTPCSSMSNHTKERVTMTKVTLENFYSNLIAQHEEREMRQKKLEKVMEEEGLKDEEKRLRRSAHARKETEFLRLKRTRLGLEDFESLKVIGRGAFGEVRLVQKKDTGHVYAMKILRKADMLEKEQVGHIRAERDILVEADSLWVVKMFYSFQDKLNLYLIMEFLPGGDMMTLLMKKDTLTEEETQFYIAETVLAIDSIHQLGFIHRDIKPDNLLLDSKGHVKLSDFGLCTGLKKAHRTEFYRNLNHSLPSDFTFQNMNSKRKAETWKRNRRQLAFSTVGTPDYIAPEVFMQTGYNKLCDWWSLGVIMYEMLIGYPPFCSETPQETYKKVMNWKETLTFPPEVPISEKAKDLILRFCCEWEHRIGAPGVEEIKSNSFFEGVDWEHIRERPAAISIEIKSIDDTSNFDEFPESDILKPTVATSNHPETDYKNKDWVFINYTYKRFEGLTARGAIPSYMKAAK
UniProt P11362, whole entry, looked up: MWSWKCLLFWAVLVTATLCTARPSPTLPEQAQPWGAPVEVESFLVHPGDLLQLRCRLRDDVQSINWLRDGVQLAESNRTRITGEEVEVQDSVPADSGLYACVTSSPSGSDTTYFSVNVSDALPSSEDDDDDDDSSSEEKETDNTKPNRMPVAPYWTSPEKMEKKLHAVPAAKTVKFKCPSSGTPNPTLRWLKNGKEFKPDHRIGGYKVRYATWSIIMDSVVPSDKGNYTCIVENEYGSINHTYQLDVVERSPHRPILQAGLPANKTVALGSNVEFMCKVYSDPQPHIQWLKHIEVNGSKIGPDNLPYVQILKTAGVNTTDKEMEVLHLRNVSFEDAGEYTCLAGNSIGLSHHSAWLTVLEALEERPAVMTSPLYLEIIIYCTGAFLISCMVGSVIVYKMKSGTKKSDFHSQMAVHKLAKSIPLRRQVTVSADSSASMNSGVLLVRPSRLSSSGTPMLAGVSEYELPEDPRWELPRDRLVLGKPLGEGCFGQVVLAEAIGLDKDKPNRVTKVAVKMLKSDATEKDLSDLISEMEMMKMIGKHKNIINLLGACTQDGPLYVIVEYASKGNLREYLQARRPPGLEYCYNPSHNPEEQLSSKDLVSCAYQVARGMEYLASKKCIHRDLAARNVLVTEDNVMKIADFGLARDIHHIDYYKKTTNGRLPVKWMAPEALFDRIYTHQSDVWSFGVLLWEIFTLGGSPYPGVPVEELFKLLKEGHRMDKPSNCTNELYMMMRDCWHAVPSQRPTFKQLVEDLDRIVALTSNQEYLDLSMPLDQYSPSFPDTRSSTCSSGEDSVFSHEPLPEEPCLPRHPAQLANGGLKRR
UniProt P07949, whole entry M918T, looked up: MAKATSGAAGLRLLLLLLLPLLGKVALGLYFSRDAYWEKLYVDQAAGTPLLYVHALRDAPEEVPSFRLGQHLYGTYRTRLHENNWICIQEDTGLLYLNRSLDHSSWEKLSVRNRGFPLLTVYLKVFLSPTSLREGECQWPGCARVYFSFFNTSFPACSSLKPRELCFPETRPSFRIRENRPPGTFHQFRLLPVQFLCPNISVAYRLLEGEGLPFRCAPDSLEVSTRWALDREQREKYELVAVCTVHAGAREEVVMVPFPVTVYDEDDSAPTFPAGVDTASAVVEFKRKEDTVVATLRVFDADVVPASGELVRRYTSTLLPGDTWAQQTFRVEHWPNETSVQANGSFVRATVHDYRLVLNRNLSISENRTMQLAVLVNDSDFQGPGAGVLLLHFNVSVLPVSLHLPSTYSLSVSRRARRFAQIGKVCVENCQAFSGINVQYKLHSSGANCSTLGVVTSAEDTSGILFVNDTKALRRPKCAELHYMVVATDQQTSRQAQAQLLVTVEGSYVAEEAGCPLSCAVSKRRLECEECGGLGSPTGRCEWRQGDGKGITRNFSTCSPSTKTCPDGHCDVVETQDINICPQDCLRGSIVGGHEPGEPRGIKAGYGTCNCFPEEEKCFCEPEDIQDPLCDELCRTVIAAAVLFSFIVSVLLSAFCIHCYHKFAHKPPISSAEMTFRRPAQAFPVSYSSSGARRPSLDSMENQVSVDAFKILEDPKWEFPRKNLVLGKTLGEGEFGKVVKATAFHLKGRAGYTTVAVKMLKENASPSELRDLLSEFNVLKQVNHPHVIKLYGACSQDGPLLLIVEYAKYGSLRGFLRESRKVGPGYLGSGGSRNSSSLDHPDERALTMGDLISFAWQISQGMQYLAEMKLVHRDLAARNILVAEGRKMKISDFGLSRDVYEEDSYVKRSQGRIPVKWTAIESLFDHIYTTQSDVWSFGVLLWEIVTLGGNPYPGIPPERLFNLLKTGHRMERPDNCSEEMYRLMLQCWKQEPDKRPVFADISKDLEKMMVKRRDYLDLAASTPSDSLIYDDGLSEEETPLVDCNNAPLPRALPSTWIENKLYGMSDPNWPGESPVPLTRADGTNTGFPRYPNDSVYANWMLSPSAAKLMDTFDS
UniProt Q92630: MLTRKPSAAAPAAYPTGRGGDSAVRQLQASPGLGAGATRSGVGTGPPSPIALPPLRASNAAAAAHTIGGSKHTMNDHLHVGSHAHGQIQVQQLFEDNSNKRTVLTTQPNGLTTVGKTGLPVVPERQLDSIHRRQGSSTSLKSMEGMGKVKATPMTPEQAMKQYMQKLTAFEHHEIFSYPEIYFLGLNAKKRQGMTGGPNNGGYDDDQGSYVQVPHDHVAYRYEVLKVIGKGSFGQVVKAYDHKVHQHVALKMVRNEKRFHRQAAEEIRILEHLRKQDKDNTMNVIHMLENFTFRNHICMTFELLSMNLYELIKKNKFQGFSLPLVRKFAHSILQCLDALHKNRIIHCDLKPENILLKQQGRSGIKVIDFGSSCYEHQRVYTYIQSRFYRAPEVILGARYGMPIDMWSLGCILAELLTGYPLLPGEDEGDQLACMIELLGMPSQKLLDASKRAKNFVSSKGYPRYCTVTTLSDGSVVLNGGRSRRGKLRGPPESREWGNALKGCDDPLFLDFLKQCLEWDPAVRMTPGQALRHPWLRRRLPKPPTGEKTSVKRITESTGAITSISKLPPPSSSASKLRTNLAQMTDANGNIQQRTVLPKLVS
UniProt Q96KB5: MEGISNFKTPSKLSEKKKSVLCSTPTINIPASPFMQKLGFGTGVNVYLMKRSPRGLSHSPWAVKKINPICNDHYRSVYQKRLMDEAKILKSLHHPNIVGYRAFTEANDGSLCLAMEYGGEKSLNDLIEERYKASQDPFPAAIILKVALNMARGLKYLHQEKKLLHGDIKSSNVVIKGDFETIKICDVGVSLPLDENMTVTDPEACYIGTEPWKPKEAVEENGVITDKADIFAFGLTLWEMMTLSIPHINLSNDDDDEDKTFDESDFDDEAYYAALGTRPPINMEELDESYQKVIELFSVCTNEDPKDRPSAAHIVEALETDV

Assays:
Experiment in all cases: number of time points (of 5) at which kinase-Nluc abundance scored as decreased, DMSO-normalised (count); higher = more persistent destabilization
Trametinib = compound: CC(=O)Nc1cccc(-n2c(=O)n(C3CC3)c(=O)c3c(Nc4ccc(I)cc4F)n(C)c(=O)c(C)c32)c1 [Trametinib]; conditions: 10 µM; K562; 2-18 h
[1] = compound: CC(=O)c1c(C)c2cnc(Nc3ccc(N4CCNCC4)cn3)nc2n(C2CCCC2)c1=O [Palbociclib (isethionate)]; conditions: 10 µM; K562; 2-18 h
[2] = compound: CC(=O)c1c(C)c2cnc(Nc3ccc(N4CCNCC4)cn3)nc2n(C2CCCC2)c1=O [Palbociclib (monohydrochloride)]; conditions: 10 µM; K562; 2-18 h
[3] = compound: CC(C)(C)n1nc(-c2cccc3ccccc23)c2c(N)ncnc21 [1-Naphthyl PP1 (hydrochloride)]; conditions: 10 µM; K562; 2-18 h
1-Naphthyl PP1 = compound: CC(C)(C)n1nc(-c2cccc3ccccc23)c2c(N)ncnc21 [1-Naphthyl PP1]; conditions: 10 µM; K562; 2-18 h
[4] = compound: CC(C)NC[C@@H](C(=O)N1CCN(c2ncnc3c2[C@H](C)C[C@H]3O)CC1)c1ccc(Cl)cc1 [Ipatasertib (dihydrochloride)]; conditions: 10 µM; K562; 2-18 h
Ipatasertib = compound: CC(C)NC[C@@H](C(=O)N1CCN(c2ncnc3c2[C@H](C)C[C@H]3O)CC1)c1ccc(Cl)cc1 [Ipatasertib]; conditions: 10 µM; K562; 2-18 h
[5] = compound: CC(C)Nc1cc(-c2c[nH]c(C(=O)N[C@H](CO)c3cccc(Cl)c3)c2)c(Cl)cn1 [Ulixertinib (hydrochloride)]; conditions: 10 µM; K562; 2-18 h
Ulixertinib = compound: CC(C)Nc1cc(-c2c[nH]c(C(=O)N[C@H](CO)c3cccc(Cl)c3)c2)c(Cl)cn1 [Ulixertinib]; conditions: 10 µM; K562; 2-18 h
[6] = compound: CC(C)Oc1ccc(-c2nn([C@@H](C)c3oc4ccc(F)cc4c(=O)c3-c3cccc(F)c3)c3ncnc(N)c23)cc1F [Umbralisib (hydrochloride)]; conditions: 2.5 µM; K562; 2-18 h
Umbralisib = compound: CC(C)Oc1ccc(-c2nn([C@@H](C)c3oc4ccc(F)cc4c(=O)c3-c3cccc(F)c3)c3ncnc(N)c23)cc1F [Umbralisib]; conditions: 2.5 µM; K562; 2-18 h
Bucladesine (calcium) = compound: CCCC(=O)Nc1ncnc2c1ncn2[C@@H]1O[C@@H]2COP(=O)(O)O[C@H]2[C@H]1OC(=O)CCC [Bucladesine (calcium)]; conditions: 10 µM; K562; 2-18 h
Bucladesine (sodium) = compound: CCCC(=O)Nc1ncnc2c1ncn2[C@@H]1O[C@@H]2COP(=O)(O)O[C@H]2[C@H]1OC(=O)CCC [Bucladesine (sodium)]; conditions: 10 µM; K562; 2-18 h
[7] = compound: CCCCCCCCc1ccc(CCC(N)(CO)CO)cc1 [Fingolimod (hydrochloride)]; conditions: 2.5 µM; K562; 2-18 h
Fingolimod = compound: CCCCCCCCc1ccc(CCC(N)(CO)CO)cc1 [Fingolimod]; conditions: 2.5 µM; K562; 2-18 h
[8] = compound: CCN(CC)CC(=O)Nc1c(C)cccc1C [Lidocaine (hydrochloride)]; conditions: 10 µM; K562; 2-18 h
Lidocaine = compound: CCN(CC)CC(=O)Nc1c(C)cccc1C [Lidocaine]; conditions: 10 µM; K562; 2-18 h
[9] = compound: CCN(CC)Cc1ccc(OC)c(-c2cc3c(-c4ccc(C(=O)O)c(C(C)C)c4)ccnc3[nH]2)c1; conditions: K562, 2-18 h
Baricitinib (phosphate) = compound: CCS(=O)(=O)N1CC(CC#N)(n2cc(-c3ncnc4[nH]ccc34)cn2)C1 [Baricitinib (phosphate)]; conditions: 10 µM; K562; 2-18 h
Baricitinib = compound: CCS(=O)(=O)N1CC(CC#N)(n2cc(-c3ncnc4[nH]ccc34)cn2)C1 [Baricitinib]; conditions: 10 µM; K562; 2-18 h

PTK2 (UniProt Q05397)
number of time points (Trametinib): 1 | number of time points [1]: 0 | number of time points [2]: 0 | number of time points [3]: 0 | number of time points (1-Naphthyl PP1): 0 | number of time points [4]: 0 | number of time points (Ipatasertib): 0 | number of time points [5]: 0 | number of time points (Ulixertinib): 0 | number of time points [6]: 0 | number of time points (Umbralisib): 0 | number of time points (Bucladesine (calcium)): 0 | number of time points (Bucladesine (sodium)): 0 | number of time points [7]: 0 | number of time points (Fingolimod): 0 | number of time points [8]: 0 | number of time points (Lidocaine): 0 | number of time points ([9]; 2.5 µM): 0 | number of time points ([9]; 10 µM): 0 | number of time points (Baricitinib (phosphate)): 0 | number of time points (Baricitinib): 0

PDGFRB (UniProt P09619)
number of time points (Trametinib): 1 | number of time points [1]: 0 | number of time points [2]: 0 | number of time points [3]: 0 | number of time points (1-Naphthyl PP1): 0 | number of time points [4]: 0 | number of time points (Ipatasertib): 0 | number of time points [5]: 0 | number of time points (Ulixertinib): 0 | number of time points [6]: 0 | number of time points (Umbralisib): 0 | number of time points (Bucladesine (calcium)): 0 | number of time points (Bucladesine (sodium)): 0 | number of time points [7]: 0 | number of time points (Fingolimod): 0 | number of time points [8]: 0 | number of time points (Lidocaine): 0 | number of time points ([9]; 2.5 µM): 0 | number of time points ([9]; 10 µM): 0 | number of time points (Baricitinib (phosphate)): 0 | number of time points (Baricitinib): 0

LCK (UniProt P06239)
number of time points (Trametinib): 0 | number of time points [4]: 0 | number of time points (Ipatasertib): 0 | number of time points [5]: 0 | number of time points (Ulixertinib): 0 | number of time points [6]: 0 | number of time points (Umbralisib): 0 | number of time points (Bucladesine (calcium)): 0 | number of time points (Bucladesine (sodium)): 0 | number of time points [7]: 0 | number of time points (Fingolimod): 0 | number of time points [8]: 0 | number of time points (Lidocaine): 0 | number of time points ([9]; 2.5 µM): 0 | number of time points ([9]; 10 µM): 0 | number of time points (Baricitinib (phosphate)): 0 | number of time points (Baricitinib): 0

SRC (UniProt P12931)
number of time points (Trametinib): 4 | number of time points [1]: 0 | number of time points [2]: 0 | number of time points [3]: 0 | number of time points (1-Naphthyl PP1): 0 | number of time points [4]: 0 | number of time points (Ipatasertib): 0 | number of time points [5]: 0 | number of time points (Ulixertinib): 0 | number of time points [6]: 0 | number of time points (Umbralisib): 0 | number of time points (Bucladesine (calcium)): 0 | number of time points (Bucladesine (sodium)): 0 | number of time points [7]: 0 | number of time points (Fingolimod): 0 | number of time points [8]: 0 | number of time points (Lidocaine): 0 | number of time points ([9]; 2.5 µM): 0 | number of time points ([9]; 10 µM): 0 | number of time points (Baricitinib (phosphate)): 0 | number of time points (Baricitinib): 0

PTK2B (UniProt Q14289)
number of time points (Trametinib): 0 | number of time points [1]: 0 | number of time points [2]: 0 | number of time points [3]: 0 | number of time points (1-Naphthyl PP1): 0 | number of time points [4]: 0 | number of time points (Ipatasertib): 0 | number of time points [5]: 0 | number of time points (Ulixertinib): 0 | number of time points [6]: 0 | number of time points (Umbralisib): 0 | number of time points (Bucladesine (calcium)): 0 | number of time points (Bucladesine (sodium)): 0 | number of time points [7]: 0 | number of time points (Fingolimod): 0 | number of time points [8]: 0 | number of time points (Lidocaine): 0 | number of time points ([9]; 2.5 µM): 0 | number of time points ([9]; 10 µM): 0 | number of time points (Baricitinib (phosphate)): 0 | number of time points (Baricitinib): 0

STK38 (UniProt Q15208)
number of time points (Trametinib): 0 | number of time points [1]: 1 | number of time points [2]: 0 | number of time points [3]: 0 | number of time points (1-Naphthyl PP1): 0 | number of time points [4]: 0 | number of time points (Ipatasertib): 0 | number of time points [5]: 0 | number of time points (Ulixertinib): 0 | number of time points [6]: 0 | number of time points (Umbralisib): 0 | number of time points (Bucladesine (calcium)): 0 | number of time points (Bucladesine (sodium)): 0 | number of time points [7]: 0 | number of time points (Fingolimod): 0 | number of time points [8]: 0 | number of time points (Lidocaine): 0 | number of time points ([9]; 2.5 µM): 0 | number of time points ([9]; 10 µM): 0 | number of time points (Baricitinib (phosphate)): 0 | number of time points (Baricitinib): 0

FGFR1 (UniProt P11362)
number of time points (Trametinib): 0 | number of time points [1]: 0 | number of time points [2]: 0 | number of time points [3]: 0 | number of time points (1-Naphthyl PP1): 0 | number of time points [4]: 0 | number of time points (Ipatasertib): 0 | number of time points [5]: 0 | number of time points (Ulixertinib): 0 | number of time points [6]: 0 | number of time points (Umbralisib): 0 | number of time points (Bucladesine (calcium)): 0 | number of time points (Bucladesine (sodium)): 0 | number of time points [7]: 0 | number of time points (Fingolimod): 0 | number of time points [8]: 0 | number of time points (Lidocaine): 0 | number of time points ([9]; 2.5 µM): 0 | number of time points ([9]; 10 µM): 0 | number of time points (Baricitinib (phosphate)): 0 | number of time points (Baricitinib): 0

RET_M918T (clone: RET_mut) (UniProt P07949)
number of time points (Trametinib): 0 | number of time points [1]: 0 | number of time points [2]: 0 | number of time points [3]: 0 | number of time points (1-Naphthyl PP1): 0 | number of time points [4]: 0 | number of time points (Ipatasertib): 0 | number of time points [5]: 0 | number of time points (Ulixertinib): 0 | number of time points [6]: 0 | number of time points (Umbralisib): 0 | number of time points (Bucladesine (calcium)): 0 | number of time points (Bucladesine (sodium)): 0 | number of time points [7]: 0 | number of time points (Fingolimod): 0 | number of time points [8]: 0 | number of time points (Lidocaine): 0 | number of time points ([9]; 2.5 µM): 0 | number of time points ([9]; 10 µM): 0 | number of time points (Baricitinib (phosphate)): 0 | number of time points (Baricitinib): 0

DYRK2 (UniProt Q92630)
number of time points (Trametinib): 1 | number of time points [1]: 4 | number of time points [2]: 0 | number of time points [3]: 0 | number of time points (1-Naphthyl PP1): 0 | number of time points [4]: 0 | number of time points (Ipatasertib): 0 | number of time points [5]: 0 | number of time points (Ulixertinib): 0 | number of time points [6]: 0 | number of time points (Umbralisib): 0 | number of time points (Bucladesine (calcium)): 0 | number of time points (Bucladesine (sodium)): 0 | number of time points [7]: 1 | number of time points (Fingolimod): 0 | number of time points [8]: 0 | number of time points (Lidocaine): 0 | number of time points ([9]; 2.5 µM): 2 | number of time points ([9]; 10 µM): 1 | number of time points (Baricitinib (phosphate)): 0 | number of time points (Baricitinib): 0

PBK (UniProt Q96KB5)
number of time points (Trametinib): 0 | number of time points [1]: 0 | number of time points [2]: 0 | number of time points [3]: 0 | number of time points (1-Naphthyl PP1): 0 | number of time points [4]: 0 | number of time points (Ipatasertib): 0 | number of time points [5]: 0 | number of time points (Ulixertinib): 0 | number of time points [6]: 0 | number of time points (Umbralisib): 0 | number of time points (Bucladesine (calcium)): 0 | number of time points (Bucladesine (sodium)): 0 | number of time points [7]: 0 | number of time points (Fingolimod): 0 | number of time points [8]: 0 | number of time points (Lidocaine): 0 | number of time points ([9]; 2.5 µM): 0 | number of time points ([9]; 10 µM): 0 | number of time points (Baricitinib (phosphate)): 0 | number of time points (Baricitinib): 0
